Values of other authors, collected in patent US7517529B2, “Treatment of type I diabetes” (Biotempt B.V., priority 2003, dated 2009).
Some results were stated once for a whole list of compounds, not compound by compound.

Tested on: relapsing MS
Details: patients with relapsing MS; cited from earlier work

Substance | reductions in relapse rate
Interferon β-1b | less than 35%
Glatiramer acetate | less than 35%
